## Screening data, single-dose tests

Measurements from “University of Dundee, Small-Polar-MMV Screening Library” (2021), ChEMBL document CHEMBL3988442.

Each number is a percent effect as filed.
The controls that fix the scale are not given in the record; negative values are as filed.
Compounds were drawn at random from those tested, without regard to their results.

Mtb cholesterol medium: 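Phenotypic screen: M. tuberculosis growth, cholesterol and DPPC medium, 4 days; the read-out is not stated. Concentration: 500 µM. Higher reads as more growth inhibition (inferred: compounds with an IC50 in retests scored well above the rest). About 18,000 compounds were tested under these conditions; 5% (about 900) showed 50% or more at least once.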
Mtb glucose medium: 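Phenotypic screen: M. tuberculosis growth, glucose 7H9 medium, 3 days; the read-out is not stated. Concentration: 500 µM. Higher reads as more growth inhibition (inferred: compounds with an IC50 in retests scored well above the rest). About 18,000 compounds were tested under these conditions; 7.9% (about 1,400) showed 50% or more at least once.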

* CC(C)(N)CNS(=O)(=O)Cc1cccc(F)c1 | Mtb cholesterol medium: 18.44%; Mtb glucose medium: 7.811%
* CC(C)(CN)C1(O)CCOCC1 | Mtb cholesterol medium: 13.15%; Mtb glucose medium: 3.927%
* Cn1c(=O)c2[nH]c(N3CCNCC3)nc2n(C)c1=O | Mtb cholesterol medium: 10.61%; Mtb glucose medium: 16.35%
* CC(c1ccncc1)N(C)C(=O)c1c[nH]c(=O)c(Cl)c1 (stereo not given) | Mtb cholesterol medium: 6.866%; Mtb glucose medium: 2.23%
* CCN1CC(C(=O)NCCC2=CCCCC2)CC1=O (stereo not given) | Mtb cholesterol medium: -19.19%; Mtb glucose medium: 16%
* OC[C@@H]1CNCC[C@@H]1c1ccccc1 | Mtb cholesterol medium: -7.307%; Mtb glucose medium: -3.418%
* CCC[C@H]1CN(C(=O)c2cccc(OC)c2C)C[C@@H]1N | Mtb cholesterol medium: 13.61%; Mtb glucose medium: 21.86%
* CN(CC(=O)N1CCOCC1)Cc1ccc(Br)o1 | Mtb cholesterol medium: 14.95%; Mtb glucose medium: 9.45%
* O=C([C@@H]1C[C@H](F)CN1)N1CCc2ccccc21 | Mtb cholesterol medium: 28.23%; Mtb glucose medium: 21.79%
* COc1cc(OC)cc(Oc2cccc(CN)c2)c1 | Mtb cholesterol medium: -1.329%; Mtb glucose medium: 1.555%
* CC(=O)N1CCN(CC(O)COc2ccccc2)CC1 (stereo not given) | Mtb cholesterol medium: 5.372%; Mtb glucose medium: 13.09%
* Cc1cccc(NC(=O)CN(C)C2CCS(=O)(=O)C2)n1 (stereo not given) | Mtb cholesterol medium: -23.33%; Mtb glucose medium: -3.232%
* COc1cc(F)ccc1N1CCNCC1 | Mtb cholesterol medium: 11.16%; Mtb glucose medium: 25.88%
* CCOc1cccc(NC(=O)NCCN(C)C)n1 | Mtb cholesterol medium: -0.09398%; Mtb glucose medium: 0.4833%
* O=C(N[C@@H]1CCOC[C@H]1O)c1ccncc1 | Mtb cholesterol medium: -5.282%; Mtb glucose medium: -9.48%
* NC(=O)c1cc2c([nH]c1=O)CC(c1ccco1)CC2=O (stereo not given) | Mtb cholesterol medium: -24.7%; Mtb glucose medium: -23.39%
* Cc1ccc(CC(=O)N2CCCC(C(N)=O)C2)s1 (stereo not given) | Mtb cholesterol medium: 15.03%; Mtb glucose medium: 16.02%
* CCOC(=O)NCCC(=O)N1CCCCCC1 | Mtb cholesterol medium: 42.14%; Mtb glucose medium: 44.95%
* N#Cc1cccnc1OC1CCC(N)CC1 (stereo not given) | Mtb cholesterol medium: 9.122%; Mtb glucose medium: 25.23%
* CN1CCN(c2ccnc(SCC(N)=O)n2)CC1 | Mtb cholesterol medium: 95.45%; Mtb glucose medium: 90.51%
* c1cnn(C2CCNCC2)c1 | Mtb cholesterol medium: -8.182%; Mtb glucose medium: -13.5%
* CCOC(=O)N1CCN(S(=O)(=O)c2cccs2)CC1 | Mtb cholesterol medium: -9.057%; Mtb glucose medium: 7.659%
* COC(=O)c1cn(CCO)nn1 | Mtb cholesterol medium: 0.289%; Mtb glucose medium: 1.945%
* Cc1cc(NC(=O)Cn2ncn(C)c2=O)cc(C)c1Br | Mtb cholesterol medium: -14.64%; Mtb glucose medium: 0.2138%
* COCCCn1c(SCCN(C)C)n[nH]c1=O | Mtb cholesterol medium: 3.155%; Mtb glucose medium: 7.621%
* N#Cc1ccnc(SCC(=O)Nc2ccncc2)c1 | Mtb cholesterol medium: -5.595%; Mtb glucose medium: 6.699%
* Cc1n[nH]cc1CNCC(O)COCC(C)C (stereo not given) | Mtb cholesterol medium: 37.24%; Mtb glucose medium: 1.038%
* CC(C)SCCN1CCN(S(N)(=O)=O)CC1 | Mtb cholesterol medium: 12.66%; Mtb glucose medium: 14.33%
* CCCNc1nc(C)c(C(C)=O)s1 | Mtb cholesterol medium: 25.19%; Mtb glucose medium: 23.61%
* CCC1CN(C(=O)c2ccc3ccccc3n2)CCO1 (stereo not given) | Mtb cholesterol medium: 75.3%; Mtb glucose medium: 72.88%
* CC(C)Oc1ccc(C(O)CN)cc1 (stereo not given) | Mtb cholesterol medium: 19.29%; Mtb glucose medium: 15.44%

For reference, 2 entries once more:

With CCOC(=O)N1CCN(S(=O)(=O)c2cccs2)CC1 the screen gave Mtb cholesterol medium: -9.057%; Mtb glucose medium: 7.659%.
With Cc1cccc(NC(=O)CN(C)C2CCS(=O)(=O)C2)n1 (stereo not given) the screen gave Mtb cholesterol medium: -23.33%; Mtb glucose medium: -3.232%.